# In PubChem BioAssay AID2685 (National Center for Advancing Translational Sciences (NCATS), 2010):
# The list shows a part of the results. The main result of the screen is listed elsewhere. These columns were measured beside it and carry no call. The list favours compounds with an active or inconclusive main result. Words in brackets tell the shape of the fitted curve; partial curves, single points and poor fits give uncertain potencies.
# Test: qHTS Assay for Lipid Storage Modulators in Drosophila S3 Cells;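 for cell number change: cells counted by Cell Tracker Red CMTPX staining in the red channel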
# Settings: BODIPY lipid droplet fluorescence, 18-24 h; for cell number change: measured here: cell count max response, cells fed with added oleic acid
# Outline: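 Drosophila S3 cells got compounds at several concentrations plus oleic acid (400 uM solution). Laser-scanning cytometry with 488 nm excitation read lipid droplets at 500-530 nm and cells at 575-640 nm. Percent activity was relative to 20 uM Triacsin C.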
# [1] = measured here: lipid fluorescence (Fed channel) AC50, cells fed with added oleic acid
# [2] = measured here: cell number channel AC50, cells fed with added oleic acid
SMILES,cell number change [%],AC50 [1],AC50 [2]
CC(=O)c1ccc(NC(=S)NC(NC(=O)c2ccco2)C(Cl)(Cl)Cl)cc1 (stereo not drawn),7.73,"1640 nM [rising, partial curve, poor fit]",
Cc1ccccc1S(=O)(=O)Cc1ccc(C(=O)NCc2ccc(F)cc2)o1,-0.0319,,"6510 nM [falling, single point]"
COc1cccc(NC(=O)C2C(c3ccccc3)C2(Cl)Cl)c1 (stereo not drawn),9.12,,
O=C(CN1CCN(c2cccc(C(F)(F)F)c2)CC1)N(C1CCCC1)C1CCS(=O)(=O)C1 (stereo not drawn),-15.5,"4610 nM [falling, full curve, poor fit]",
CC1(C)CC(=O)c2cnc(NC(=O)C3CCCC3)nc2C1,-21.5,"366 nM [falling, full curve, poor fit]","2590 nM [falling, partial curve]"
CCN1C(=O)CC(N2CCN(C(c3ccccc3)c3ccccc3)CC2)C1=O (stereo not drawn),1.65,,
C/C(=N\NC(=O)C(C)Sc1ccccc1)c1ccc([N+](=O)[O-])cc1 (stereo not drawn),-3.92,"259 nM [falling, full curve]",
COc1ccc(OC)c(Nc2nc(NCCO)c3ccccc3n2)c1,-11.9,"651 nM [falling, single point]",
O=C(Nc1cccc(C(F)(F)F)c1)c1ccc2nc(-c3ccco3)c(-c3ccco3)nc2c1,-6.35,"580 nM [rising, single point]",
CN1CCN(S(=O)(=O)c2cccc(C(=O)N(C)Cc3cccs3)c2)CC1,0.933,"32.6 nM [falling, full curve, poor fit]","820 nM [falling, single point]"
CC(C)OCCCNC(=O)C1CCC(=O)N1C1CCCC1 (stereo not drawn),0.572,,
CC(C)c1ccc(NC(=O)CSc2nnc(-c3ccccn3)n2C)cc1,-15.5,"2910 nM [falling, full curve]",
CSc1ccc(S(=O)(=O)NCc2ccc(Cl)cc2Cl)cc1,-48.8,"20600 nM [falling, single point]","18400 nM [falling, single point]"
CCOC(=O)CN(C(=O)CNC(=O)c1ccco1)C(C(=O)NC1CCCCC1)c1cccnc1 (stereo not drawn),-33.3,,"130 nM [falling, full curve, poor fit]"
CCCC1(CCC)NC(=O)N(CC(=O)c2cc(C)n(-c3ccc4c(c3)OCO4)c2C)C1=O,1.62,"116 nM [rising, full curve, poor fit]",
CCS(=O)(=O)Nc1ccc(C(=O)CC2(O)C(=O)Nc3ccccc32)cc1 (stereo not drawn),-174,"23100 nM [falling, partial curve]","29100 nM [falling, partial curve]"

# In a second layout: entries from further up
SMILES | cell number change [%] | AC50 [1] | AC50 [2]
Cc1ccccc1S(=O)(=O)Cc1ccc(C(=O)NCc2ccc(F)cc2)o1 | -0.0319 |  | 6510 nM [falling, single point]
O=C(Nc1cccc(C(F)(F)F)c1)c1ccc2nc(-c3ccco3)c(-c3ccco3)nc2c1 | -6.35 | 580 nM [rising, single point] | 
